Data from PubChem BioAssay AID588590 (National Center for Advancing Translational Sciences (NCATS), 2011).
Hit rate of the full screen: of about 390,000 compounds, about 4,000 (1%) were called active. The shares of active, inactive and inconclusive entries below differ from those in the screen. The call rests on the fitted dose curve; in most records, active means well fitted inhibition curve with a large enough effect; inconclusive means small, poorly fitted or top-dose-only effect, or another doubt; inactive means no such curve, though single readings can be large or run the other way. Potencies of inconclusive entries are doubtful fits and often do not repeat.

Amino acid sequences for entries named in this document (tags omitted). A change or cut given only in a name is not applied to a line headed by its entry.
UniProt Q9UNA4: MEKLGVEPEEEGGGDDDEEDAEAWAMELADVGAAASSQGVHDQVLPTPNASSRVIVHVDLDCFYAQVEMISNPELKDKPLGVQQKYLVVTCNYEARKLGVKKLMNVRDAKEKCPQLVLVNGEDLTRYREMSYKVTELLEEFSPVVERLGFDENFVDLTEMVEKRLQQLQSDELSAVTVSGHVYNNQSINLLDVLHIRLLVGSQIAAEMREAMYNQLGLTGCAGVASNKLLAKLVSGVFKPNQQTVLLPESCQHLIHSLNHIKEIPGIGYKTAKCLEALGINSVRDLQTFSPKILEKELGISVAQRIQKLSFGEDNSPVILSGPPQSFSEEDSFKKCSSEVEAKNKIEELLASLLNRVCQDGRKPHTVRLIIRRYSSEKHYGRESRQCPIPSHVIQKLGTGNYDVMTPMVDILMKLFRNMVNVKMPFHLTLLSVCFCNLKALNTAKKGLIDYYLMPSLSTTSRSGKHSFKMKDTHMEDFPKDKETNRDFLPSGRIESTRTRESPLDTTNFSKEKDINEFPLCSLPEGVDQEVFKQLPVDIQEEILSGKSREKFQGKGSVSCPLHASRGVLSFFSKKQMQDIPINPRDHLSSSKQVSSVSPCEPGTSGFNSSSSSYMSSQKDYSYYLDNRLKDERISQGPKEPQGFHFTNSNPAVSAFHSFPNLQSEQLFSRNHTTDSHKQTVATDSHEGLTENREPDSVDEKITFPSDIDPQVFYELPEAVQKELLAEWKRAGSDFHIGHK

Biological target: DNA polymerase iota (Homo sapiens) (UniProt Q9UNA4)
Test: qHTS for Inhibitors of Polymerase Iota
Settings: Pol iota fluorescent replication assay, 10 min; series mostly up to 115 µM; activity, negative = inhibition: at the top concentration
Summary of the method: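 Fluorescent replication assay read twice, at 0 min and 10 min after adding 50 nM (final) substrate. Enzyme (10 nM) and compounds were first incubated 15 min at room temperature; enzyme-free buffer wells were negative controls.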
Potency means the concentration at half of the fitted maximal effect.

Row | SMILES | Potency | activity, negative = inhibition
1 | Cc1ccc(-c2cc(-c3coc4ccccc4c3=O)c3c(n2)-c2cc(Cl)ccc2OC3)cc1 | inconclusive: 89.1 µM [inhibitor, partial curve, poor fit] | –
2 | COc1ccc(-c2noc(CSc3nnc(-c4ccncc4)n3-c3cccc(C)c3)n2)cc1OC | – | inactive: 33.1%
3 | CCCCn1c(N)c(N(CC(C)C)C(=O)c2cc(-c3ccc(OC)c(OC)c3)nc3ccccc23)c(=O)[nH]c1=O | – | inactive: 22.6%
4 | COc1cc(-c2nnc(SCC(=O)N(C)C3CCCCC3)o2)cc(OC)c1OC | – | inactive: -16.2%
5 | COc1ccc(NC(=O)CCCN2C(=O)C(c3ccccc3)Oc3cccnc32)cc1OC (stereo unspecified) | inconclusive: 56.2 µM [inhibitor, partial curve, poor fit] | –
6 | N[C@@H](Cc1ccc(O)cc1)C(=O)NO | – | inactive: 33.8%
7 | COCCCNC(=O)c1c(N)n(/N=C/c2ccccn2)c2nc3ccccc3nc12 | inconclusive: 15.8 µM [inhibitor, partial curve, poor fit] | –
8 | COc1ccc(-c2cc(C(=O)Nc3cc(OC)cc(C(=O)Nc4cccc(C(F)(F)F)c4)c3)[nH]n2)cc1 | inconclusive: 17.8 µM [inhibitor, partial curve, poor fit] | –
9 | O=C(Nc1ccccc1Cl)N1CCCN(c2nc(-c3ccccc3)ns2)CC1 | inconclusive: 39.8 µM [inhibitor, single point] | –
10 | Cc1ccc(C(=O)c2cn(CC(=O)Nc3ccc4c(c3)OCCO4)c3nc(C)ccc3c2=O)cc1 | inconclusive: 89.1 µM [inhibitor, single point] | –
11 | O=C1C2C3C=CC(CO)(O3)C2C(=O)N1c1ccccc1-c1ccccc1 (stereo unspecified) | inconclusive: 100 µM [inhibitor, single point] | –
12 | COc1ccc(-n2c(C)cc(/C=C3\SC(=O)NC3=O)c2C)cc1 | inconclusive: 22.4 µM [inhibitor, partial curve, poor fit] | –
13 | CCOC(=O)N1CCC(Nc2nc3ccccc3nc2NS(=O)(=O)c2ccc(Cl)cc2)CC1 | inconclusive: 28.2 µM [inhibitor, single point] | –
14 | Cc1ccc(CN2CCN(C/C=C/c3ccc(F)cc3)CC2CCO)o1 (stereo unspecified) | inconclusive: 22.4 µM [inhibitor, partial curve, poor fit] | –
15 | Cc1cc(OC(=O)c2ccccc2Br)c([N+](=O)[O-])c(=O)[nH]1 | – | inactive: -4.96%
16 | Cc1cc(C)cc(OCC(=O)NNC(=O)c2cc3ccccc3o2)c1 | – | inactive: 9.69%
17 | CCOC(=O)c1c(C)n(C)c2cc(-c3cccc(C(F)(F)F)c3)c(O)cc12 | inconclusive: 79.4 µM [inhibitor, single point] | –
18 | CC[C@]12c3[nH]c4ccc(OC)cc4c3CCN1C(=O)C(CC(=O)NCC13CC4CC(CC(C4)C1)C3)C[C@@H]2C(=O)N1CCN(C(=O)c2ccco2)CC1 (stereo partly specified) | inconclusive: 79.4 µM [inhibitor, partial curve, poor fit] | –
19 | Cc1ccc(-n2c(Cc3cccn3C)nnc2SCC(=O)Nc2nnc(C)s2)cc1 | inconclusive: 89.1 µM [inhibitor, partial curve, poor fit] | –
20 | CC1=C(C(=O)Nc2cccnc2)C(c2ccc(F)cc2)n2nc(SCc3ccccc3)nc2N1 (stereo unspecified) | – | inactive: 12.4%
21 | COc1ccccc1-c1nnc(SCC(=O)Nc2ccc(N3CCOCC3)cc2)n1N | inconclusive: 100 µM [inhibitor, partial curve, poor fit] | –

Row | SMILES | Potency | activity, negative = inhibition
22 | Cc1cccc(NC(=O)CCS(=O)(=O)c2cc(Br)cc3c2N(C(=O)C2CC2)CC3)c1C | inconclusive: 89.1 µM [inhibitor, single point] | –
23 | CCN1CCN(c2ccc(S(=O)(=O)N3CCOCC3)cc2NC(=O)c2ccc(F)cc2Cl)CC1 | inconclusive: 79.4 µM [inhibitor, single point] | –
24 | Oc1ccccc1N=Cc1c(O)ccc2ccccc12 | inconclusive: 28.2 µM [inhibitor, partial curve] | –
25 | Cc1ccc(-c2nnc(N(C)C(=O)c3ccccn3)s2)cn1 | inconclusive: 39.8 µM [inhibitor, single point] | –
26 | O=C(CNc1ccc2c(c1)OCO2)N/N=C\c1cn(Cc2ccccc2)c2ccccc12 | inconclusive: 17.8 µM [inhibitor, single point] | –
27 | CCOc1ccc(N=Nc2c(=O)[nH]n3c(=O)cc(C)[nH]c23)cc1 | – | inactive: -12.3%
28 | CN1c2ccccc2-c2nc(SCC(=O)Nc3ccccc3)ncc2S1(=O)=O | inconclusive: 89.1 µM [inhibitor, partial curve, poor fit] | –
29 | S=C(NCC1CCCO1)N1CCN(c2cccc(Cl)c2)CC1 (stereo unspecified) | inconclusive: 70.8 µM [inhibitor, single point] | –
30 | COc1ccc(Cl)cc1C(=O)NNC(=O)c1cc2ccccc2o1 | inconclusive: 63.1 µM [inhibitor, single point] | –
31 | CCN(CCCNC(=O)c1ccc(Sc2ccc(Cl)cc2)c(NC(C)=O)c1)c1cccc(C)c1 | – | inactive: 6.64%
32 | CN(C)C(=O)CSc1ncnc2scc(-c3ccccc3)c12 | – | inactive: 110%
33 | Cc1cnc(NC(=O)Cc2ccc(Br)cc2)s1 | – | inactive: 39.9%
34 | CCN(CC)c1ccc(C=C2C(=O)OC3(CCCCC3)OC2=O)cc1 | inconclusive: 35.5 µM [inhibitor, single point] | –
35 | NC(=O)c1ccsc1NC(=O)CSc1n[nH]c(N)n1 | inconclusive: 39.8 µM [inhibitor, single point] | –
36 | Cc1nnc2n1N=C(c1ccc3c(c1)NC(=O)CO3)CS2 | inconclusive: 10 µM [inhibitor, partial curve, poor fit] | –
37 | CCOc1cccc(/C(O)=C2/C(=O)C(=O)N(CCN3CCOCC3)C2c2cccnc2)c1 (stereo unspecified) | inconclusive: 8.91 µM [inhibitor, full curve, poor fit] | –
38 | CN1C(=O)S/C(=C\c2ccccc2OCc2ccc(C(=O)O)cc2)C1=O | – | inactive: 19%
39 | c1ccc(Nc2ncnc3c2oc2ccccc23)cc1 | inconclusive: 28.2 µM [inhibitor, single point] | –
40 | CC1CC(=O)N(c2ccc(NCc3ccc(Cl)cc3)c([N+](=O)[O-])c2)C1=O (stereo unspecified) | – | inactive: 4.68%
41 | CSc1cccc(NC(=O)c2ccc3c(c2)CCCN3S(C)(=O)=O)c1 | – | inactive: -13.4%

Ordered by number of heavy atoms (ascending): 3 of the compounds above.
Row | SMILES | Potency | activity, negative = inhibition
11 | O=C1C2C3C=CC(CO)(O3)C2C(=O)N1c1ccccc1-c1ccccc1 (stereo unspecified) | inconclusive: 100 µM [inhibitor, single point] | –
20 | CC1=C(C(=O)Nc2cccnc2)C(c2ccc(F)cc2)n2nc(SCc3ccccc3)nc2N1 (stereo unspecified) | – | inactive: 12.4%
8 | COc1ccc(-c2cc(C(=O)Nc3cc(OC)cc(C(=O)Nc4cccc(C(F)(F)F)c4)c3)[nH]n2)cc1 | inconclusive: 17.8 µM [inhibitor, partial curve, poor fit] | –
